The record followed here is the supplement of paper PMC10032668.

By UniProt entry, the sequences of proteins in these tests, tags left out.
HIST1H1C, P16403, UniProt P16403, whole entry: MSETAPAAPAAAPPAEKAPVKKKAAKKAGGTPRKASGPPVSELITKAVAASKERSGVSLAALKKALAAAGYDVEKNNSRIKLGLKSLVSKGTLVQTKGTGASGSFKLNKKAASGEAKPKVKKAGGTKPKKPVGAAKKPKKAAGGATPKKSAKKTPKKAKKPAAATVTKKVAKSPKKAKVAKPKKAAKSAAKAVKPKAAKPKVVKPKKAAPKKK
HIST1H1D, P16402, UniProt P16402, whole entry: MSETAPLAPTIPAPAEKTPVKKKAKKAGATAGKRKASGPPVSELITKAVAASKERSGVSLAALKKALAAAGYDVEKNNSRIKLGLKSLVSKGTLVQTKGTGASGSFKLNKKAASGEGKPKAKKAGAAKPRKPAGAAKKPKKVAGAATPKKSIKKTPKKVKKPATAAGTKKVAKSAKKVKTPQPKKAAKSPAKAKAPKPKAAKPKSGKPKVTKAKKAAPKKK
MORF4L2, Q15014, UniProt Q15014, whole entry: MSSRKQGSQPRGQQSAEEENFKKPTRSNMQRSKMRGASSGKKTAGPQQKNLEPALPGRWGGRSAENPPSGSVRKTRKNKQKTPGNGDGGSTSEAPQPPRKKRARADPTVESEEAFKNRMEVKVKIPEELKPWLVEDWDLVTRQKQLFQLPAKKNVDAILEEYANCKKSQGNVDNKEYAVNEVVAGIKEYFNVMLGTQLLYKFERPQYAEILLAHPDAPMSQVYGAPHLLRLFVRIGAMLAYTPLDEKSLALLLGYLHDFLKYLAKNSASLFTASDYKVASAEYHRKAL
PIN4, Q9Y237, UniProt Q9Y237, whole entry: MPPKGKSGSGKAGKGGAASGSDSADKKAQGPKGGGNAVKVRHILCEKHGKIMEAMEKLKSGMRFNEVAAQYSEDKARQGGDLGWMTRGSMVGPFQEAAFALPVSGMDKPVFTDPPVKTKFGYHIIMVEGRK
TMA7, Q9Y2S6, UniProt Q9Y2S6, whole entry: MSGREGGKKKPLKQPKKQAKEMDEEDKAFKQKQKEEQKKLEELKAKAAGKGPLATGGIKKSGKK
BCCIP, Q9P287, UniProt Q9P287, whole entry: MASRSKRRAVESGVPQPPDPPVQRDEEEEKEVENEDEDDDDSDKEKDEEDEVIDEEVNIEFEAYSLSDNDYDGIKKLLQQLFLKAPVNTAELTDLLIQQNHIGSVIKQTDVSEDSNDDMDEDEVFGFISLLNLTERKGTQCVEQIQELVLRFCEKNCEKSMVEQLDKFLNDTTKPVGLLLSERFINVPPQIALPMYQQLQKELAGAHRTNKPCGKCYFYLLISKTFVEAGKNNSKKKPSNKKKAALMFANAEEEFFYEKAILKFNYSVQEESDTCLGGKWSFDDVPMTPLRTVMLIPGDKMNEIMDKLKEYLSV
PCBP3, P57721, UniProt P57721, whole entry: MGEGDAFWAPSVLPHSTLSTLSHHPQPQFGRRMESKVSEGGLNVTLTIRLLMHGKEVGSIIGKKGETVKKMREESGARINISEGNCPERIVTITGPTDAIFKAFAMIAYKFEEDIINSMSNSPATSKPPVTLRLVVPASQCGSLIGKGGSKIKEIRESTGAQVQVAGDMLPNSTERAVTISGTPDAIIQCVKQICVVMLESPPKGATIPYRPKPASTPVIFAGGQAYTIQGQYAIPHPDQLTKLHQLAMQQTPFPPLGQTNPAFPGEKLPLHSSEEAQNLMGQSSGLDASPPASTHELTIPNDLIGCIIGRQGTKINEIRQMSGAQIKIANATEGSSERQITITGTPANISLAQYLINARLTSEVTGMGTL
ATG3, Q9NT62, UniProt Q9NT62, whole entry: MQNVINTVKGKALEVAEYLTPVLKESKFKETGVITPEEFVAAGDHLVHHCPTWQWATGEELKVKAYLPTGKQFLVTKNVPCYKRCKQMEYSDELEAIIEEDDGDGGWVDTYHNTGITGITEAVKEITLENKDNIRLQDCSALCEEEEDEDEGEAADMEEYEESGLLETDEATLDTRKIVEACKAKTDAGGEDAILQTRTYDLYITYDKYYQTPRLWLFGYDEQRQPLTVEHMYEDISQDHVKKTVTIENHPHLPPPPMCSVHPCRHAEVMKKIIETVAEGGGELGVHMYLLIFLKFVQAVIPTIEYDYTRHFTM

The other results are listed elsewhere or left out. The list holds hits alone, and they repeat only in part.

Holding throughout (assay): PRISMA enrichment of interactor (LFQ) in peptide spot vs all other peptide spots (log2 fold change); higher = stronger / more specific binding of the interactor to the peptide
Assay [1] has as its target BRIX1, Q8TDN6. How it is done: (§1)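 PRISMA: 221 full-length sORF-encoded peptides (3-15 aa), plus SOS1/GLUT1 control peptides, were spot-synthesized on cellulose membranes in triplicate. Membranes were incubated with HEK293T lysate, and bound proteins were identified by LC-MS/MS with LFQ. Enrichment is the log2 fold change versus all other peptide spots; only significant interactors are listed (cutoff c=6, x0=2.8).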

The target of assay [2] is DERPC, P0CG12. How it is done:
as §1

Assay [3] concerns the target PRPF38A, Q8NAV1. The method, then:
as §1

Assay [4] concerns the target SNX4, O95219. The method, then:
as §1

For assay [5], the target named is STAU2, Q9NUL3. The method, then: as §1
Assay [6] concerns the target C19orf53, Q9UNZ5. How it is done:
as §1

For assay [7], the target named is H1FX, Q92522. The method, then:
as §1

The target in assay [8] is HIST1H1C, P16403. The method, then:
as §1

Assay [9] has as its target HIST1H1D, P16402. The method, then:
as §1

Assay [10] deals with HMGN4, O00479. The method, then:
as §1

Assay [11] deals with HP1BP3, Q5SSJ5. The method, then: as §1
Assay [12] has as its target MAP4, P27816. How it is done: as §1
In assay [13] the target is MORF4L2, Q15014. How it is done: as §1
Assay [14] has as its target MRPL3, P09001. How it is done: as §1
For assay [15], the target named is PIN4, Q9Y237. How it is done: as §1
Assay [16] has as its target SERF2, P84101. The method, then: as §1
For assay [17], the target named is TMA7, Q9Y2S6. How it is done:
as §1

Assay [18] concerns the target ZNF706, Q9Y5V0. How it is done:
as §1

Assay [19] addresses ATP5ME, P56385. How it is done:
as §1

Substrate in assay [20]: BCCIP, Q9P287
The method, then: as §1

For assay [21], the target named is CHCHD2, Q9Y6H1. How it is done:
as §1

The target in assay [22] is MRPL10, Q7Z7H8. How it is done:
as §1

Assay [23] concerns the target NAP1L1, P55209. How it is done: as §1
The target of assay [24] is NAP1L4, Q99733. How it is done:
as §1

In assay [25] the target is PPM1G, O15355. The method, then: as §1
For assay [26], the target named is BZW1, Q7L1Q6. How it is done:
as §1

The target of assay [27] is CCNL2, Q96S94. How it is done: as §1
The target of assay [28] is HERC2, O95714. The method, then: as §1
Assay [29] concerns the target PCBP3, P57721. How it is done:
as §1

Assay [30] has as its target SNRPA1, P09661. How it is done:
as §1

Assay [31] has as its target ATG3, Q9NT62. How it is done: as §1
Assay [32] has as its target C19orf47, Q8N9M1. How it is done:
as §1

Assay [33] addresses DCXR, Q7Z4W1. How it is done:
as §1

Assay [34] deals with EMILIN1, Q9Y6C2. The method, then:
as §1

The target of assay [35] is HSPA14, Q0VDF9. The method, then:
as §1

For assay [36], the target named is METTL26, Q96S19. How it is done: as §1
For assay [37], the target named is MRPL39, Q9NYK5. The method, then:
as §1

Assay [38] addresses NUP98, P52948. How it is done:
as §1

Substrate in assay [39]: SON, P18583
How it is done: as §1

The target in assay [40] is SPTSSA, Q969W0. The method, then:
as §1

The target of assay [41] is TGM1, P22735. How it is done: as §1
The target in assay [42] is YTHDF3, Q7Z739. The method, then:
as §1

For MQGVPGGLRSPSGE [ANK1], the “PRISMA enrichment of interactor (log2)” value in assay [1] was found to be 7.68; in assay [2] it was 6.21; in assay [3], 6.31; in assay [4], 6.67; in assay [5], 6.16.

Take MMEEAEVEATEC [ADAM9]: the “PRISMA enrichment of interactor (log2)” value in assay [6] was found to be 8.76; in assay [7] it was 6.08; in assay [8], 6.33; in assay [9], 6.82; in [10] it was 4.1; in [11], 5.71. Also, the “PRISMA enrichment of interactor (log2)” value in assay [12] is 6.79; in assay [13], 6.93; in [14], 6.8; in [15], 5.79; in assay [16] it was 7.81; in [17], 6.28. Further, in [18], the “PRISMA enrichment of interactor (log2)” value turned out to be 4.78.

With MVWRSTRTRAARRRA [LMBR1], the “PRISMA enrichment of interactor (log2)” value was 5.27 in assay [19]; 4.99 in [20]; 4.51 in assay [21]; 5.39 in [22]; 6.66 in assay [23]; 5.68 in assay [24]. In addition, the “PRISMA enrichment of interactor (log2)” value in assay [25] amounted to 5.39.

For MAAPGSDRLLGLRRE [ATG13], the “PRISMA enrichment of interactor (log2)” value in assay [26] came out at 6.51; in assay [27] it was 4.61; in assay [28] it was 4.19; in [29], 4.14; in assay [30], 8.95.

Take MVAQAELRALIL [SNHG5]: the “PRISMA enrichment of interactor (log2)” value in [31] worked out at 6.14; in [32], 4.1; in [33], 8.7; in assay [34] it was 9.14; in assay [35], 6.88; in [36], 4.71. For the same molecule, the “PRISMA enrichment of interactor (log2)” value in assay [37] is 6.8; in assay [38], 5.18; in assay [39] it was 4.94; in assay [40], 8.27; in [41] it was 4.48; in [42] it was 4.57.
